Test results reported in patent EP4400508A1, “ACTIVE PEPTIDE AND USE THEREOF” (Harvest Biotech Co., Ltd, priority 2021, dated 2024).
Part of at least one peptide drawing is inferred or uncertain, most often the ends. No end group written: not given here.

Test: UVA damage repair experiment with truncated and modified bioactive peptides (Example 6)
Format: cell-based
Conditions: FIG. 8

ESETKILLQ [EQ-9-1, ESETKILLQ]
activity (UVA damage repair): activity of the polypeptide is reduced
